Here are results for three substances from publication PMC5007559.

Chains of the proteins cited; added tags and fusions are not shown. Lines headed by an entry give the natural chain unless they say otherwise; changes in a name come on top.
UniProt P35637, whole entry: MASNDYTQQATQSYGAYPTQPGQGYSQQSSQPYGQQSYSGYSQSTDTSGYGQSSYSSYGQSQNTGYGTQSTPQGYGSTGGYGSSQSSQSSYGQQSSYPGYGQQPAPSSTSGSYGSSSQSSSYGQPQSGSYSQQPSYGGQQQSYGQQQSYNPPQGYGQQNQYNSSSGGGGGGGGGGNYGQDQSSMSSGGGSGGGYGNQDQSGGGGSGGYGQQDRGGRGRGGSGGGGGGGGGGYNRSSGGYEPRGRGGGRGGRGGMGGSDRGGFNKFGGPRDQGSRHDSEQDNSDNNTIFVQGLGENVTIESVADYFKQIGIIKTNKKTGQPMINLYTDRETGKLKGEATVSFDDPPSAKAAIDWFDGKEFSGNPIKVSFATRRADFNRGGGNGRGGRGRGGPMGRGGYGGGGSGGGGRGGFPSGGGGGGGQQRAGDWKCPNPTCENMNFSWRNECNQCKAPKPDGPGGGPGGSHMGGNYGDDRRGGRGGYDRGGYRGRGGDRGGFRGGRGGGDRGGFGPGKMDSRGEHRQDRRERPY

No constants are given. Whether binding was seen depends on the method and setting. In cells and extracts the contact can be indirect. Where a sequence is shown, tags or fusion partners need not be part of it.

The assay concerns the target T1, haemagglutinin (HA)-tagged PTPIP51 (UniProt Q96TC7).
T1 sequence: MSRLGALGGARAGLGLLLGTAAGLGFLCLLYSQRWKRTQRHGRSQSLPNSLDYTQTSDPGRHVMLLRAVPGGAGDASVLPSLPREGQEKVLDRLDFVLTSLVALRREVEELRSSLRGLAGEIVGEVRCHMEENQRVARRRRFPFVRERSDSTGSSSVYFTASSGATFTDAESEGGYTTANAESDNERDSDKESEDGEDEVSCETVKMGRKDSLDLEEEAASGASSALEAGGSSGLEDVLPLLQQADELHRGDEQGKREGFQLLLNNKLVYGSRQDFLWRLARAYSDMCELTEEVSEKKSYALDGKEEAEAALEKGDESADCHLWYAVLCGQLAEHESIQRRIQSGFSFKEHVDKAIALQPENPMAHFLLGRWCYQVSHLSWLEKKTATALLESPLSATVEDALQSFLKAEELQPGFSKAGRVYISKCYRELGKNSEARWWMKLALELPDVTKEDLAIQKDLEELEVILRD
The assay can be described thus: co-IP; HEK293 cells transfected with HA-PTPIP51 and HA-FUS (wild type, R521C or R518K); PTPIP51 immunoprecipitated with rat anti-PTPIP51, FUS probed with rabbit FUS antibody; 50 mM Tris-citrate pH 7.4, 150 mM NaCl, 1% Triton X-100, 5 mM EGTA, 5 mM EDTA, 4 C.

Consider “HA-tagged familial ALS mutant FUS R521C (from UniProt P35637 1-526)”, for which the binding entry is given as “no binding”. The result for “HA-tagged familial ALS mutant FUS R518K (from UniProt P35637 1-526)” reads “no binding”. For “HA-tagged wild-type FUS (fused in sarcoma) (from UniProt P35637 1-526)”, the binding result was “no binding”.
